In paper PMC6894070, “The Plasmodium falciparum Hsp70-x chaperone assists the heat stress response of the malaria parasite” (The FASEB Journal, 2019):
These are yes or no findings as the source states them, for the method shown. Binding calls can cover weak binding; strength is not graded here.

Biological target: T1, J-domain of P. falciparum Hsp40 cochaperone PFA0660w (PFA0660wJ), aa 81-148 (P. falciparum) (UniProt Q8I2E1)
T1 sequence: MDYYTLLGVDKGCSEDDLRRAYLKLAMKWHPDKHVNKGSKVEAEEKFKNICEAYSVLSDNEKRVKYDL
Experiment: NMR titration; 15N-labelled PFA0660wJ titrated with unlabelled chaperone; HSQC peak intensity changes; 25°C; 20 mM sodium phosphate pH 7.4, 150 mM NaCl, 2 mM DTT; both purified

Plasmodium falciparum Hsp70-x (PfHsp70-x), full-length construct aa 25-679 (from UniProt K7NTP5)
binding: binds
